Taken from: PubChem BioAssay AID1259308 (NCATS, 2017)

- Screen: 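Candidate targets for better recombinant protein yield in mammalian cells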 (primary screen)
- Cell system: human HEK293 embryonic kidney cells stably expressing firefly luciferase (HEK-CMV-Luc2-Hygro)
- Reagent: single siRNA against human genes, 0.8 pmol siRNA per well
- Time to read-out: 72 h
- Detection: 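Reporter luminescence and viable-cell signal on separate replicate plates, given as percent of non-targeting control and median/MAD z-scores, plus per-cell luciferase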
- Scale: total luciferase, z-score and total luciferase, % of control: higher = more reporter protein produced
- Call rule: 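An siRNA counts as active if its total luciferase robust z-score exceeds 3; genes with two or more such siRNAs out of three were retested with fresh siRNAs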
- Meaning of the calls: active = raised luciferase; inactive = no rise
The deposit covers about 59,000 reagents; shown is an unselected part. About 1,510 of them (2.6%) count as active. 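Calls use total luciferase alone and ignore viability, so some active siRNAs may act by altering cell number.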 Entries without a mark were called inactive. Further read-outs or replicates are left out here.

| gene knocked down | PubChem SID | total luciferase, z-score | total luciferase, % of control |
| --- | --- | --- | --- |
| EPOR | SID160761269 | -0.86 | 64.8 |
| EPOR | SID160761277 | 0.239 | 86.6 |
| EPOR | SID160761286 | 0.234 | 86.5 |
| TNFRSF21 | SID160738587 | -0.21 | 77.7 |
| TNFRSF21 | SID160738588 | -1.35 | 55 |
| TNFRSF21 | SID160738589 | 1.18 | 105 |
| PHF11 | SID160740142 | 3.44 (active) | 150 |
| PHF11 | SID160740143 | -0.000798 | 81.9 |
| PHF11 | SID160740144 | -0.107 | 79.8 |
| IRAG2 | SID160769459 | -0.179 | 78.3 |
| IRAG2 | SID160769460 | -0.0629 | 80.6 |
| IRAG2 | SID160769461 | 0.423 | 90.3 |
| IRAG2 | SID160776714 | 0.698 | 95.8 |
| IRAG2 | SID160776715 | 1.61 | 114 |
| IRAG2 | SID160776716 | -0.0393 | 81.1 |
| SLC6A20 | SID160742059 | -1.28 | 56.4 |
| SLC6A20 | SID160742060 | 2.19 | 125 |
| SLC6A20 | SID160742061 | 0.67 | 95.2 |
| TDRP | SID160732591 | -0.0198 | 81.5 |
| TDRP | SID160759542 | 1.08 | 103 |
| TDRP | SID160759543 | 1.14 | 105 |
| NAA10 | SID160719772 | -0.531 | 71.3 |
| NAA10 | SID160719773 | -1.05 | 61 |
| NAA10 | SID160719774 | -1.78 | 46.4 |
